Test results from PubChem BioAssay AID2685 (National Center for Advancing Translational Sciences (NCATS), 2010).
The whole screen tested about 320,000 compounds, of which about 2,100 (0.66%) were called active. This list was built around the results that the source calls inconclusive (neither active nor inactive); the mix of calls is not that of the screen. Calls come from the whole dose curve; as a rule, active = well fitted inhibition curve with a large enough effect in the signal ratio, with a control signal flat (not every such curve was filed as active); inconclusive = small, poorly fitted or top-dose-only effect, or effect the other way, or a change in a side signal; inactive = flat fitted curve, though single readings scatter; the % refers to the signal ratio. Potencies beside an inconclusive call are fits to weak or partial responses and may not hold up.

Experiment: qHTS Assay for Lipid Storage Modulators in Drosophila S3 Cells
Conditions: BODIPY lipid droplet fluorescence, 18-24 h, cells fed with added oleic acid; lipid storage change, negative = inhibition: at 46.1 µM (top of the series) unless noted
In short: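 Drosophila S3 cells loaded with oleic acid (400 uM, as added) and compounds at several concentrations; lipid droplets imaged by 488-nm laser-scanning cytometry, 500–530 nm intensity and object ratio to cell channel. Percent activity normalized to 20 uM Triacsin C.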
% is set by controls: 0 for no effect and ±100 for the full control effect; potency is the fitted concentration of half-maximal effect.

SMILES	lipid storage change, negative = inhibition	Potency
O=C(NC1CCCC1)C(=O)N(Cc1cccnc1)C(C(=O)NCc1ccco1)c1ccccc1F (centres undefined)	inconclusive: 18.7%	–
Cc1c(C(=O)NCc2cccnc2)oc2ccc(S(=O)(=O)N3CC(C)CC(C)C3)cc12 (centres undefined)	–	inconclusive: 7310 nM [rising, partial curve]
CCCn1c(N2CCN(C(=O)Nc3ccc(Cl)cc3)CC2)nc2ccccc21	inconclusive: -18.5%	–
CC(C1CC1)N(C(=O)NC1CCS(=O)(=O)C1)c1ccccc1 (centres undefined)	inconclusive: 1.86%	–
COc1ccc(-c2cn(CCC(=O)NCc3ccc(C)cc3)c(-c3ccncc3)n2)cc1	inconclusive: -62.9%	–
O=C(COc1ccc(-c2ccccc2)cc1)N1CCN(S(=O)(=O)Cc2ccccc2)CC1	inconclusive: 450%	–
CN(C)S(=O)(=O)c1cccc(NC(=O)c2cc(-c3cccs3)nc3ccccc23)c1	inconclusive: -4.41%	–
CCOC(=O)C1=C(C)NC(=O)NC1c1ccc(OC)c(Cl)c1 (centres undefined)	inconclusive: -18.1%	–
Cc1nc(NC2=NCN(Cc3cccnc3)CN2)nc2c(C)cccc12	inconclusive: 18.9%	–
COc1ccc(C(=O)Nc2nncs2)c(OC)c1	–	inconclusive: 7310 nM [activator, partial curve, poor fit]
CCOC(=O)C1(CCOc2ccccc2)CCN(Cc2ccc(O)c(Cl)c2)CC1	inconclusive: 5.09%	–
O=C(CSc1ccccn1)N1CCN(c2ccccc2)CC1	inconclusive: 47.6%	–
O=C(/C=C/c1ccco1)Nc1ccccc1C(=O)Nc1cccc(C(=O)O)c1	inconclusive: 19.2%	–
Cc1cc(C)c(NC(=O)CNC(=O)CSc2nnc(N)s2)c(C)c1	inconclusive	–
O=C(CCC(=O)OCCCC(F)(F)C(F)(F)F)Nc1ccccc1	inconclusive: -32.1%	–
O=C(Nc1cccc(S(=O)(=O)N2CCCCC2)c1)C1=NN(c2ccccc2)C(=O)CC1	–	inconclusive: 13000 nM [falling, single point]
COc1ccc(-c2nc3ccccc3c(=O)o2)cc1OC	inconclusive: 7.74%	–
COc1ccc(CCNC(=O)CCC(=O)N2CC(C)Oc3ccccc32)cc1OC (centres undefined)	inconclusive: -52%	–
Cc1cc2cc(CNC(=O)c3ccc(S(=O)(=O)N(C)C)cc3)ccc2n1C	inconclusive: 21.1%	–
COC(=O)c1cc(C(=O)N2CCN(c3cccc(C)c3C)CC2)cc([N+](=O)[O-])c1	inconclusive: 4.07%	–

SMILES	lipid storage change, negative = inhibition	Potency
CN(CCO)C(=O)c1cccc2c1-c1ccccc1C2=O	–	inconclusive: 1460 nM [falling, full curve]
CC(=O)c1c(C)[nH]c(C(=O)OCC(=O)NCCc2ccc(F)cc2)c1C	inconclusive: -18.3%	–
Cc1cc(C)c(C#N)c(N2CCN(Cc3ccc4c(c3)OCO4)CC2)n1	inconclusive: -3.08%	–
CCOCC(=O)Nc1nc2ccc(OCC)cc2s1	inconclusive: 2.12%	–
Clc1ccccc1OCc1nc(-c2ccncc2)no1	–	inconclusive: 731 nM [activator, partial curve]
Cc1cc(-c2cc(C(=O)NCc3ccccc3)on2)nc(NC2CCCC2)n1	inconclusive: 10.3%	–
CSc1nnc2n(-c3ccccc3)c(=O)c3c4c(sc3n12)CCC4	inconclusive: 64.1%	–
Cc1nc(NC(=O)CN2CCCCC2)sc1C(=O)N(C)C	inconclusive: -15.5%	–
Cc1cc(S(N)(=O)=O)c(N)c(S(N)(=O)=O)c1	inconclusive: -10.8%	–
O=C(Oc1ccccc1)c1ccccc1OS(=O)(=O)c1ccccc1	–	active: 517 nM
CCn1cc(CN2CCCC(C(=O)Nc3ccc(-c4cscn4)cc3)C2)cn1 (centres undefined)	–	inconclusive: 3260 nM [activator, full curve]
CC(=O)Nc1ccc(S(=O)(=O)NNC(=O)c2cc3c4ccccc4n(C)c3s2)cc1	–	inconclusive: 206 nM [rising, full curve, poor fit]
CCc1cc2c(CN3CCN(CCO)CC3)cc(=O)oc2cc1O	inconclusive: -42.2%	–
CCOC(=O)/C(=C\c1ccc(OC)c(OC)c1)C(=O)c1cccnc1	–	inconclusive: 29100 nM [falling, single point]
c1csc(-c2nn3c(-c4ccncc4)nnc3s2)c1	–	inconclusive: 580 nM [activator, single point]
CCN1C(Nc2ccccc2)=NC[C@@H]1Cc1ccccc1	–	inconclusive: 16400 nM [falling, single point]
CC1CCN(C(=O)CC(NC(=O)c2ccccc2Cl)c2ccccc2)CC1 (centres undefined)	–	inconclusive: 92 nM [activator, partial curve, poor fit]
S=c1sc2c(N3CCOCC3)ncnc2n1-c1ccccc1	inconclusive: 20.1% [at 9.22 µM]	–
Cc1ccc(CCNC(=O)CSCc2ccc(F)cc2)cc1	–	inconclusive: 651 nM [falling, single point]

Single entries from above:
In Potency, `Cc1ccc(CCNC(=O)CSCc2ccc(F)cc2)cc1` is listed with inconclusive: 651 nM [falling, single point]
In lipid storage change, negative = inhibition, `Cc1nc(NC(=O)CN2CCCCC2)sc1C(=O)N(C)C` is listed with inconclusive: -15.5%
